Laboratory results published in article PMC3376730, “Crystal structure of Caulobacter crescentus polynucleotide phosphorylase reveals a mechanism of RNA substrate channelling and RNA degradosome assembly” (Open Biology, 2012).
These are yes or no findings as the source states them, for the method shown. Binding seen in cells or lysates may run through a third protein. Some results given as binding are weak or reduced against the parent protein; the word gives no strength. Where a sequence is shown, tags or fusion partners need not be part of it.

Molecular target: T1, RNase E with an N-terminal flag tag, genomically encoded in C. crescentus (Caulobacter crescentus) (UniProt Q9A749)
T1 sequence: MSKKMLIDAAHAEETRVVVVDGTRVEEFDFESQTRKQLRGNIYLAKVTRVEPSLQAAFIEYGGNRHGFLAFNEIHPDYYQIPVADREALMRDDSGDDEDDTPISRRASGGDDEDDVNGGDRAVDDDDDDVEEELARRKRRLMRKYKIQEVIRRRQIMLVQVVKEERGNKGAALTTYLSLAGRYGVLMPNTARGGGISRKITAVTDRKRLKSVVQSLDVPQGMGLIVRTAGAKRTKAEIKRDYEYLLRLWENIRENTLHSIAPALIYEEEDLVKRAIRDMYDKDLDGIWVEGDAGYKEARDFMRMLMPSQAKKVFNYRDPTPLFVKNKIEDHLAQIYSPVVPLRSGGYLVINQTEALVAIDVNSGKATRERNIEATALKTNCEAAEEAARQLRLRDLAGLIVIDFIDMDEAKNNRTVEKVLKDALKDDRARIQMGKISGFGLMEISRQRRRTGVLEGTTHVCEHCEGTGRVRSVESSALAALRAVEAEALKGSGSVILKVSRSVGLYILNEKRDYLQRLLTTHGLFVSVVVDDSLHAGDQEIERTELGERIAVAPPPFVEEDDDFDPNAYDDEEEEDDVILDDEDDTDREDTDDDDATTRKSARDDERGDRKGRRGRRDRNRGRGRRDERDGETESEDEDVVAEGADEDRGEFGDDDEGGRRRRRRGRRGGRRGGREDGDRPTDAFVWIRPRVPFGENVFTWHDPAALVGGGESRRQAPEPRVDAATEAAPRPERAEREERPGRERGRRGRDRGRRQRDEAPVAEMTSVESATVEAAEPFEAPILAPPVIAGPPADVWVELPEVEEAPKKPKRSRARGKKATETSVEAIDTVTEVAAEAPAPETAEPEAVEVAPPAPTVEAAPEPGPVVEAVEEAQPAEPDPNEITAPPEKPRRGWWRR
Experiment: pull-down; flag-tagged, genomically encoded RNase E pulled down from C. crescentus; degradosome components assessed by SDS–PAGE

binding: binds
B1: Caulobacter crescentus polynucleotide phosphorylase (enzyme, UniProt B8GWZ0 1-712, looked up)
chain: MFDIKRKTIEWGGKTLVLETGRIARQADGAVLATMGETVVLATAVFAKSQKPGQDFFPLTVNYQEKTFAAGKIPGGFFKREGRPSEKETLVSRLIDRPIRPLFVKGFKNEVQVVVTVLQHDLENDPDILGMVAASAALCLSGAPFMGPIGAARVGWVDGAYVLNPTLDEMKESKMDLVVAGTADAVMMVESEIQELSEEIVLGGVNFAHQQMQAVIDAIIDLAEHAAKEPFAFEPEDTDAIKAKMKDLVGADIAAAYKIQKKQDRYEAVGAAKKKAIAALGLSDENPTGYDPLKLGAIFKELEADVVRRGILDTGLRIDGRDVKTVRPILGEVGILPRTHGSALFTRGETQAIVVATLGTGDDEQFIDALEGTYKESFLLHYNFPPYSVGETGRMGSPGRREIGHGKLAWRALRPMLPTKEDFPYTIRLVSEITESNGSSSMATVCGSSLAMMDAGVPLVRPVSGIAMGLILEQDGFAVLSDILGDEDHLGDMDFKVAGTSEGLTSLQMDIKIAGITPAIMEQALAQAKEGRAHILGEMNKAMDAPRADVGDFAPKIETINIPTDKIREVIGSGGKVIREIVATTGAKVDINDDGVVKVSASDGAKIKAAIDWIKSITDEAEVGKIYDGKVVKVVDFGAFVNFFGAKDGLVHVSQISNERVAKPSDVLKEGQMVKVKLLGFDDRGKTKLSMKVVDQETGEDLSKKEAAAEEA
notes: polynucleotide phosphorylase, pnp gene (CC0034), amplified from genomic DNA of C. crescentus strain NA1000 with primers from the start codon to the stop codon; Two alternative constructs were made (GST-PNPase from pGEX-6p-1, GST cut off with PreScission protease; 6xHis-PNPase from pET-DUET); the two tags are not on one chain; also called PNPase; C. crescentus PNPase; source: E. coli, purified …
